Reference: PubChem BioAssay AID504834 (National Center for Advancing Translational Sciences (NCATS), 2011)
Out of some 320,000 compounds screened, about 22,000 (6.9%) were called active. Inconclusive means that the source gave no clear call. Such entries were picked first, then a sample of the others. Calls follow the shape of the dose curve; as a rule, active = well fitted inhibition curve with a large enough effect; inconclusive = small, poorly fitted or top-dose-only effect, or another doubt; inactive = no such curve, though single readings can be large or run the other way. Potencies beside an inconclusive call are fits to weak or partial responses and may not hold up.

assay: Primary qHTS for delayed death inhibitors of the malarial parasite plastid, 96 hour incubation; details: P. falciparum luciferase reporter growth; series mostly up to 28.7 µM; activity change, negative = inhibition: at the top concentration
Summary of the method: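 Plates of compound plus infected erythrocytes (2% hematocrit, 0.05% parasitemia final) incubate 96 hours, 37 C, 5% CO2. Detection reagent added; reduced luminescence from the parasites' luciferase reporter flags inhibition.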
% is scaled to controls: 0 for no effect and ±100 for the full control effect; potency is read from the fitted curve at half-maximal effect.

Row | Structure (SMILES) | activity change, negative = inhibition | Potency
1 | Cc1cccc(-n2ccnc2SCC(=O)Nc2nccs2)c1 | inactive: 0% | 
2 | Cc1ccc(NC(=O)N(CCC(=O)O)Cc2ccccc2)cc1 | inactive: 17.2% | 
3 | O=C(Nc1ccnn1C1CCN(C(=O)c2ccc(F)c(Cl)c2)CC1)C1CC1 |  | inconclusive: 1.65 µM [inhibitor, full curve]
4 | Cc1ccc(C)c(-c2cc(C(=O)Nc3sc(C)c(C)c3C(N)=O)c3ccccc3n2)c1 |  | active: 10.4 µM
5 | CC(=O)Nc1ccc(NS(=O)(=O)c2ccc3ccccc3c2)cc1 |  | inconclusive: 1.65 µM [inhibitor, full curve]
6 | O=S(=O)(NCc1ccccc1)c1ccc(-c2cnc(C3CC3)o2)cc1 |  | inconclusive: 14.7 µM [inhibitor, single point]
7 | Cc1ccc(C(=O)Nc2ccccc2C(=O)Nc2ccccn2)cc1Cl |  | inconclusive: 18.5 µM [inhibitor, single point]
8 | CCN(CC)CCCNC(=O)CCC(=O)Nc1ccc2nc(N3CCC(C)CC3)cc(C)c2c1 |  | inconclusive: 20.8 µM [inhibitor, partial curve, poor fit]
9 | C/C(Cc1ccccc1)=N\NC(=O)CNC(=O)Cc1ccc(Cl)cc1 | inactive: 31.6% | 
10 | CCOc1cc(/C=C(\C#N)C(=O)Nc2ccc(S(N)(=O)=O)cc2)ccc1OCCN1CCOCC1 | inactive: 2.64% | 
11 | CC1=CC2=NC(=O)CC(C)(C(=O)N(CC(=O)NC(C)(C)C)C3CCCC3)N2C=C1 (stereo unspecified) |  | inconclusive: 18.5 µM [inhibitor, single point]
12 | Cc1oc(-c2ccccc2Cl)nc1CS(=O)CC(=O)N1CCN(c2ccccc2)CC1 (stereo unspecified) |  | inconclusive: 18.5 µM [inhibitor, single point]
13 | N#C/C(=C/c1cn(-c2ccccc2)nc1-c1cccc(S(=O)(=O)N2CCCC2)c1)C(=O)NCc1ccco1 |  | active: 10.4 µM
14 | CN(c1ccccc1)S(=O)(=O)c1cccc(NC(=O)CCNC(=O)c2ccccc2)c1 |  | inconclusive: 11.7 µM [inhibitor, partial curve, poor fit]
15 | CCCNC(=O)N1CCN(S(=O)(=O)c2ccc3c(c2)OCCO3)CC1 | inactive: -18.6% | 
16 | CC(=O)NC(C)c1nc2ccccc2n1CC(=O)NC(C)CCc1ccccc1 (stereo unspecified) |  | inconclusive: 4.65 µM [inhibitor, partial curve]
17 | CCCN1CCN(CCCNC(=O)c2ccc3c(=O)n(CCc4ccccc4)c(=O)[nH]c3c2)CC1 |  | inconclusive: 14.7 µM [inhibitor, partial curve, poor fit]
18 | COCC(=O)N(c1ccccc1)C(C)C(=O)OC (stereo unspecified) |  | inconclusive: 1.31 µM [inhibitor, single point]
19 | O=C(CCC(=O)OC(C(=O)c1ccccc1)c1ccccc1)Nc1ccccc1 (stereo unspecified) |  | inconclusive: 16.5 µM [inhibitor, single point]
20 | COc1ccccc1OCC(=O)Nc1ccccc1C(=O)NCc1cccnc1 |  | inconclusive: 18.5 µM [inhibitor, single point]
21 | O=C(CCC(=O)N1CCN(S(=O)(=O)c2ccc3ccccc3c2)CC1)Nc1cc(Cl)cc(Cl)c1 | inactive: -0.794% [at 5.75 µM] | 
22 | CCN(C(=O)c1cnc(OC)cc1C(F)(F)F)c1ccc(Cl)cc1 |  | inconclusive: 3.7 µM [inhibitor, full curve]
23 | O=C1C=C(NC2=CC3OC(c4ccccc4)OCC3OC2=O)CCC1 (stereo unspecified) | inactive: 1.82% | 
24 | C/C(Cn1nc([N+](=O)[O-])cc1C)=N\NC(=O)c1cccc(Br)c1 | inactive: 19.3% | 

Row | Structure (SMILES) | activity change, negative = inhibition | Potency
25 | COC(=O)C1=C(C)N(c2ccc(C)cc2)/C(=C/c2cccs2)C1=O |  | inconclusive: 18.5 µM [inhibitor, single point]
26 | N#CCc1ccc(NC(=O)CSc2nnc(C3CC3)n2C2CC2)cc1 |  | inconclusive: 2.08 µM [inhibitor, full curve, poor fit]
27 | COc1ccc(C2CC(c3cccs3)=NN2C(=O)c2ccccc2)cc1OC (stereo unspecified) |  | active: 0.415 µM
28 | CC(=O)OC(COc1ccccc1)Cn1cnc2cc(C)c(C)cc21 (stereo unspecified) | inactive: -4.75% | 
29 | COc1ccc(NC(=O)CN2CCN(CC(=O)Nc3ccc4c(c3)OCO4)CC2)cc1 |  | inconclusive: 18.5 µM [inhibitor, single point]
30 | Cc1onc(-c2c(F)cccc2Cl)c1C(=O)Nc1sc2c(c1C#N)CCC(C(C)(C)C)C2 (stereo unspecified) |  | inconclusive: 10.4 µM [inhibitor, single point]
31 | O=c1[nH]c(/C=C/c2ccc(OC(F)F)cc2)nc2c1cnn2-c1ccccc1 | inactive: 4.52% | 
32 | Cc1c(C(=O)Nc2ccc(N3CCOCC3)cc2)oc2ccccc12 | inactive: 7.92% | 
33 | COc1ccc(C2CC(c3ccccc3)=NN2c2ccccc2)c(C(=O)O)c1OC (stereo unspecified) | inactive: -11.9% | 
34 | O=C(c1cc(-c2ccccc2)nc2ccccc12)N1CCCC1 | inactive: 10.3% | 
35 | COc1cccc(-n2c([S-])c(C(=O)Nc3ccc(C(F)(F)F)cc3)[n+]3ccccc23)c1 | inactive: 1.27% | 
36 | O=C(NC1=NCCS1)c1ccc(Cl)c(S(=O)(=O)N2CCCC2)c1 |  | inconclusive: 0.233 µM [inhibitor, full curve, poor fit]
37 | COc1ccccc1N=CC1=C(O)CC(c2ccccc2)CC1=O (stereo unspecified) |  | active: 13.1 µM
38 | O=C(CSc1nc2ccccc2s1)N/N=C/c1cc([N+](=O)[O-])ccc1O | inactive: -6.56% | 
39 | O=C(COC(=O)c1cc(Cl)ccc1O)NCCC1=CCCCC1 | inactive: 2.71% | 
40 | O=[N+]([O-])c1ccc(O)c(P(=O)(c2ccccc2)c2ccccc2)c1 |  | inconclusive: 1.31 µM [inhibitor, partial curve, poor fit]
41 | CCOC(=O)N1CCC(c2nc3ccccc3[nH]2)CC1 |  | active: 9.28 µM
42 | CCOC(=O)c1cccc(NC(=O)Cn2cnc3c2c(=O)n(C)c(=O)n3C)c1 | inactive: 10.6% | 
43 | O=C(CSc1ncnc2ccccc12)Nc1cccc(S(=O)(=O)N2CCCC2)c1 |  | inconclusive: 10.4 µM [inhibitor, single point]
44 | CC(Oc1ccc(Cl)cc1Cl)C(=O)NCCCN(C)C (stereo unspecified) |  | inconclusive: 0.329 µM [inhibitor, full curve, poor fit]
45 | Cc1ccc(SCCC(=O)NC(C(C)C)C(C)C)cc1 |  | inconclusive: 18.5 µM [inhibitor, single point]
46 | COc1ccc([N+](=O)[O-])cc1NC(=O)c1ccccc1N(C)S(C)(=O)=O |  | inconclusive: 9.28 µM [inhibitor, partial curve, poor fit]
47 | Cc1ccc(Cl)cc1-n1ncc2c(NNC(=O)c3ccco3)ncnc21 |  | inconclusive: 18.5 µM [inhibitor, partial curve, poor fit]
48 | CNC(=O)COc1ccc(S(=O)(=O)N2CCCC2)cc1 |  | inconclusive: 0.586 µM [inhibitor, full curve]

Row | Structure (SMILES) | activity change, negative = inhibition | Potency
49 | O=C(Nc1c2ccccc2nc2ccccc12)C(Cl)(Cl)Cl | inactive: 35.6% | 
50 | CC1CCCN(C(=O)CSCC(=O)Nc2nc(-c3cccs3)cs2)C1 (stereo unspecified) |  | inconclusive: 2.33 µM [inhibitor, partial curve, poor fit]
51 | Cc1cc(SCC(=O)c2cccc([N+](=O)[O-])c2)nc(=O)[nH]1 | inactive: -19.7% | 
52 | Cc1ccc(C(=O)NCC#N)cc1 | inactive: 21.1% | 
53 | O=[N+]([O-])c1c(NCCO)cc(N2CCCCC2)c2nonc12 | inactive: 5.98% | 
54 | Cc1ccc(S(=O)(=O)N2CCN(C(C)C(=O)Nc3ccccc3-c3ccccc3)CC2)cc1 (stereo unspecified) |  | active: 7.38 µM
55 | CC(C)N(Cc1ccccc1)C(=O)CN1C(=O)COc2ccc(S(=O)(=O)NC3CCCC3)cc21 |  | inconclusive: 14.7 µM [inhibitor, partial curve]
56 | COc1cccc(CC2(CO)CCCN(Cc3ccc(CO)o3)C2)c1 (stereo unspecified) |  | inconclusive: 18.5 µM [inhibitor, single point]
57 | COc1ccc(S(=O)(=O)N2CCC(N3CCN(Cc4ccccc4)CC3)CC2)cc1 | inactive: 16.3% | 
58 | O=C1NC(=O)/C(=C/c2cccc([N+](=O)[O-])c2)N1 |  | inconclusive: 13.1 µM [inhibitor, single point]
59 | CC1CN(C(=O)Nc2cccc(C(F)(F)F)c2)CC(C)O1 (stereo unspecified) |  | inconclusive: 9.28 µM [inhibitor, partial curve, poor fit]
60 | CCCC[C@@H]1CNC(=S)N1CC1CCCCC1 |  | inconclusive: 18.5 µM [inhibitor, single point]
61 | c1ccc2nc(N3CCOCC3)c(N3CCOCC3)nc2c1 |  | inconclusive: 11.7 µM [inhibitor, single point]
62 | COc1ccc(NC(=O)c2cccc(C#N)c2)cc1NS(=O)(=O)c1ccc(F)cc1 | inactive: -7.91% | 
63 | COc1ccc(-c2[nH]c3ccccc3c2SCCNC(=O)c2ccccc2)cc1 |  | inconclusive: 18.5 µM [inhibitor, single point]
64 | COc1ccc(C(=O)Nc2nc(C)c(C)s2)cc1OC |  | inconclusive: 18.5 µM [inhibitor, single point]
65 | CC1CCCN(C(=O)c2ccc3c(=O)n(C4CCCC4)c(=S)[nH]c3c2)C1 (stereo unspecified) | inactive: -4.09% | 
66 | COc1cc2c(cc1OC)C(c1cc(C)ccc1C)CC(=O)N2 (stereo unspecified) |  | inconclusive: 18.5 µM [inhibitor, single point]
67 | Cc1ccc(NC(=O)Cn2c(=O)c3cccn3c3ccccc32)c(C)c1 |  | inconclusive: 2.62 µM [inhibitor, full curve, poor fit]
68 | O=C(NC(=S)Nc1cccc(CO)c1)c1ccc(-c2ccccc2)cc1 | inactive: 90.5% | 
69 | CCN=C1SC(CC(=O)Nc2ccccc2)C(=O)N1CC (stereo unspecified) |  | inconclusive: 4.65 µM [inhibitor, partial curve, poor fit]
70 | COC(=O)c1ccc(Cn2cc(/C=C\[N+](=O)[O-])c3ccccc32)o1 |  | inconclusive: 10.4 µM [inhibitor, single point]
71 | Nc1ncc(-c2ccccc2)c(-c2ccc(OCc3ccccc3)cc2O)n1 |  | inconclusive: 10.4 µM [inhibitor, single point]

By substructure, those above with an NH in an aromatic ring.
Row | Structure (SMILES) | activity change, negative = inhibition | Potency
17 | CCCN1CCN(CCCNC(=O)c2ccc3c(=O)n(CCc4ccccc4)c(=O)[nH]c3c2)CC1 |  | inconclusive: 14.7 µM [inhibitor, partial curve, poor fit]
31 | O=c1[nH]c(/C=C/c2ccc(OC(F)F)cc2)nc2c1cnn2-c1ccccc1 | inactive: 4.52% | 
41 | CCOC(=O)N1CCC(c2nc3ccccc3[nH]2)CC1 |  | active: 9.28 µM
51 | Cc1cc(SCC(=O)c2cccc([N+](=O)[O-])c2)nc(=O)[nH]1 | inactive: -19.7% | 
63 | COc1ccc(-c2[nH]c3ccccc3c2SCCNC(=O)c2ccccc2)cc1 |  | inconclusive: 18.5 µM [inhibitor, single point]
65 | CC1CCCN(C(=O)c2ccc3c(=O)n(C4CCCC4)c(=S)[nH]c3c2)C1 (stereo unspecified) | inactive: -4.09% | 
